This is an account of results in the supplement of paper PMC4604168 (melanoma cell lines).

Holding throughout (assay): cleaved PARP positive nuclei fraction relative to DMSO control; melanoma cells; higher = more apoptosis
Holding throughout (conditions): library dose: low library concentration; 72 h

For test [1], the system named is WM115.
For test [2], the system named is WM1716.
Test [3] concerns WM1745.
Test [4] has as its system WM3526.
Test [5] concerns WM3619.
Test [6] deals with WM451Lu.

The other results are listed elsewhere or left out. Repeats are few or missing, and single values can be far off.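 The apoptosis fraction was the count of cleaved-PARP antibody-stained nuclei relative to all DNA-stained nuclei, imaged in 1,536-well plates. Screening doses were set so most cells survived, and baseline and induced cleaved-PARP levels vary greatly across cell lines.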

Take `C[C@@H](N)c1ccc(C(=O)Nc2ccnc3[nH]ccc23)cc1` + C=CCNC1=C2C[C@@H](C)C[C@H](OC)[C@H](O)[C@@H](C)/C=C(\C)[C@H](OC(N)=O)[C@@H](OC)/C=C\C=C(/C)C(=O)NC(=CC1=O)C2=O [Tanespimycin] (first compound 0.4 µM, partner dose 0.002 µM): the “cleaved PARP positive nuclei fraction” value in test [1] amounted to 120%; in test [2] it was 135%; in test [3], 121%; in test [4], 39.5%; in test [5], 84.7%; in test [6] it was 99.3%.
`C[C@@H](N)c1ccc(C(=O)Nc2ccnc3[nH]ccc23)cc1` + C#Cc1cccc(Nc2ncnc3cc(OCCOC)c(OCCOC)cc23)c1 [erlotinib] (first compound 0.4 µM, partner dose 0.8 µM): the “cleaved PARP positive nuclei fraction” value came out at 79.3% in test [1]; 96.5% in test [2]; 233% in test [3]; 40.9% in test [4]; 85.2% in test [5]; 50.6% in test [6].
Consider `COc1ccc(C2=N[C@@H](c3ccc(Cl)cc3)[C@@H](c3ccc(Cl)cc3)N2C(=O)N2CCNC(=O)C2)c(OC(C)C)c1` [Nutlin-3] + C=C(c1ccc(C(=O)O)cc1)c1cc2c(cc1C)C(C)(C)CCC2(C)C [Bexarotene] (first compound 0.1 µM, partner dose 2 µM), for which the “cleaved PARP positive nuclei fraction” value in test [1] amounted to 69.4%; in test [2], 169%; in test [3] it was 112%; in test [4], 52.8%; in test [5], 106%; in test [6] it was 46.6%.
With `CCN(CC)CCNC(=O)c1c(C)[nH]c(/C=C2\C(=O)Nc3ccc(F)cc32)c1C` [sunitinib] + CCCCCCCCCCCC1=C(O)C(=O)C=C(O)C1=O [Embelin] (first compound 0.4 µM, partner dose 1.2 µM), the “cleaved PARP positive nuclei fraction” value amounted to 90% in test [1]; 62.3% in test [2]; 94.4% in test [3]; 229% in test [4]; 62.9% in test [5]; 197% in test [6].
For the compound `CC1(C)CCC(c2ccc(Cl)cc2)=C(CN2CCN(c3ccc(C(=O)NS(=O)(=O)c4ccc(N[C@H](CCN5CCOCC5)CSc5ccccc5)c(S(=O)(=O)C(F)(F)F)c4)cc3)CC2)C1` + C[C@@H](N)c1ccc(C(=O)Nc2ccnc3[nH]ccc23)cc1 [RKI983] (first compound 0.4 µM, partner dose 0.4 µM), the “cleaved PARP positive nuclei fraction” value in test [1] was found to be 314%; in test [2], 3970%; in test [3], 853%; in test [4], 115%; in test [5], 106%; in test [6], 168%.
Consider `CS(=O)(=O)c1ccc(C(=O)Nc2ccc(Cl)c(-c3ccccn3)c2)c(Cl)c1` [vismodegib] + Nc1cccc2c1CN(C1CCC(=O)NC1=O)C2=O [lenalidomide] (first compound 1 µM, partner dose 1 µM), for which the “cleaved PARP positive nuclei fraction” value in test [1] was 99.2%; in test [2] it was 67.9%; in test [3], 102%; in test [4] it was 166%; in test [5], 86.8%; in test [6] it was 57.1%.
Take `NC1(c2ccc(-c3nc4ccn5c(=O)[nH]nc5c4cc3-c3ccccc3)cc2)CCC1` + O=C(O)c1ccc2c(c1)nc(Nc1cccc(Cl)c1)c1ccncc12 [CX4945] (first compound 0.4 µM, partner dose 0.4 µM): the “cleaved PARP positive nuclei fraction” value in test [1] stood at 124%; in test [2], 141%; in test [3], 101%; in test [4], 70.3%; in test [5], 112%; in test [6] it was 42.7%.
As for `CCCCCCCCc1ccc(CCC(N)(CO)CO)cc1` [fingolimod] + c1cc(-c2cnn3cc(-c4ccc(OCCN5CCCCC5)cc4)cnc23)ccn1 [Dorsomorphin] (first compound 2 µM, partner dose 0.4 µM), the “cleaved PARP positive nuclei fraction” value in test [1] was found to be 206%; in test [2], 49.6%; in test [3], 102%; in test [4] it was 76.1%; in test [5], 97.1%; in test [6] it was 37%.
For `CS(=O)(=O)c1ccc(C(=O)Nc2ccc(Cl)c(-c3ccccn3)c2)c(Cl)c1` [vismodegib] + Clc1ccc(Nc2nnc(Cc3ccncc3)c3ccccc23)cc1 [vatalanib] (first compound 1 µM, partner dose 2 µM), the “cleaved PARP positive nuclei fraction” value in test [1] was found to be 113%; in test [2], 166%; in test [3], 121%; in test [4] it was 72.9%; in test [5], 95.7%; in test [6] it was 91.6%.
`NC(=O)c1ccc(N(C(N)=O)c2c(F)cccc2F)nc1-c1ccc(F)cc1F` + Nc1cccc2c1CN(C1CCC(=O)NC1=O)C2=O [lenalidomide] (first compound 0.4 µM, partner dose 1 µM): the “cleaved PARP positive nuclei fraction” value in test [1] came out at 80.3%; in test [2], 1250%; in test [3], 104%; in test [4], 20.9%; in test [5] it was 79.6%; in test [6], 81%.
Take `CN(c1ncccc1CNc1nc(Nc2ccc3c(c2)CC(=O)N3)ncc1C(F)(F)F)S(C)(=O)=O` + CC(C)(C)c1cnc(CSc2cnc(NC(=O)C3CCNCC3)s2)o1 [SNS-032] (first compound 0.08 µM, partner dose 0.01 µM): the “cleaved PARP positive nuclei fraction” value in test [1] turned out to be 128%; in test [2], 108%; in test [3] it was 115%; in test [4], 161%; in test [5] it was 98.9%; in test [6], 81.7%.
On to `CC1(C)CCC(c2ccc(Cl)cc2)=C(CN2CCN(c3ccc(C(=O)NS(=O)(=O)c4ccc(N[C@H](CCN5CCOCC5)CSc5ccccc5)c(S(=O)(=O)C(F)(F)F)c4)cc3)CC2)C1` + COc1cc(Nc2ncc(F)c(Nc3ccc4c(n3)NC(=O)C(C)(C)O4)n2)cc(OC)c1OC [Tamatinib] (first compound 0.4 µM, partner dose 0.4 µM), for which the “cleaved PARP positive nuclei fraction” value is 863% in test [1]; 536% in test [2]; 812% in test [3]; 83.5% in test [4]; 154% in test [5]; 23.7% in test [6].
